Assay results published in patent publication US20160046678A1 (ZYNGENIA, published 2016).
No constants are given. Whether binding was seen depends on the method and setting. Some entries that bind do so weakly or less than the wild type.

T1: Angiopoietin-2 (Ang2) (human, UniProt O15123 19-496, biotin label in Examples 22-24)
T1 construct: also called rhAng2; recombinant Ang2
T1 sequence (looked up): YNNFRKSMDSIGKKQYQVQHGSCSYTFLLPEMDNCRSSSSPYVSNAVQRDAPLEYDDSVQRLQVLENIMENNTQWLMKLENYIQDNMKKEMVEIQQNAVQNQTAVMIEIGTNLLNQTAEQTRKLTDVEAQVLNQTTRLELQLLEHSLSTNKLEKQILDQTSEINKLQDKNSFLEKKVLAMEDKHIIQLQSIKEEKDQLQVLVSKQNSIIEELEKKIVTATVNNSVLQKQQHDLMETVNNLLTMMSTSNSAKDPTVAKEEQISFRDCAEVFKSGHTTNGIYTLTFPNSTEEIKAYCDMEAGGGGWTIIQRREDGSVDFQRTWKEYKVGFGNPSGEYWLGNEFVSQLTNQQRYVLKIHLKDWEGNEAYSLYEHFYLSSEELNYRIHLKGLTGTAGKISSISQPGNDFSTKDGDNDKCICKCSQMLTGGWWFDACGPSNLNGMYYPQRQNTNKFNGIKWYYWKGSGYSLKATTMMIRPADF


Target: T1, Angiopoietin-2 (Ang2)
Assay: Example 48, method not detailed

| binding | Binder |
| --- | --- |
| binds | NYYYCYLSPNPPHCYLSF [ANG197] |
| binds | RDTDCYFYPNPAHCYLGT [ANG201] |
| binds | PIEDCYFYPNPRHCYLQP [ANG159] |
| binds | ICPWWYDHYTCF [ANG110] |
| binds | GYRDCYFYPNPRHCYGSH [ANG128] |
| binds | ECYTFPNPQFCY [ANG116] |
| binds | LGPVLLECYFYPNPQHCY [ANG123] |
| binds | LQGRMIDCYSYPNPPHCY [ANG175] |
| binds | QPRLLHDCYFYPNPSHCY [ANG149] |
| binds | HFSDCFFYPNPQHCYHMM [ANG158] |
| binds | GHMDCYYYPNPSHCYQQL [ANG190] |
| binds | LVNDCFFFPNPPHCYVSS [ANG130] |
| binds | SSGPDIDCYFYPNPPHCY [ANG186] |
| binds | KCPLLPDWLSCLEWQLME [ANG211] |
| binds | QWNDCYFYPNPPHCYGRQ [ANG189] |
| binds | KCPMLPDWVSCDEWMLQK [ANG203] |
| binds | SLPLRAFCYFPPNWPHCY [ANG139] |
| binds | WDVDCGFFPNPAYCYELG [ANG174] |
| binds | RLHDCYFYPNPPHCYLWQ [ANG182] |
| binds | QLVDCLYYPNPPHCYESM [ANG172] |
| binds | HFSDCYYFPNPPHCYESI [ANG198] |
| binds | SSLHMLDCYYYPNPPHCY [ANG193] |

| binding | Binder |
| --- | --- |
| binds | DEQACYFYPNPAHCYQRD [ANG132] |
| binds | VCPYWWDHWLCL [ANG108] |
| binds | NPTDCYFYPNPQHCYNWG [ANG150] |
| binds | WLSQCYSYPNPPHCYTLF [ANG192] |
| binds | GNFAHEECYFYPNPAHCY [ANG148] |
| binds | QSLSFLDCYFYPNPLHCY [ANG194] |
| binds | HSLIYHDCYFYPNPPHCY [ANG136] |
| binds | RMADCYFYPNPQHCYTEG [ANG131] |
| binds | PWHECYWYPNPPHCYGIL [ANG144] |
| binds | FWYSLDDCYFYPNPSHCY [ANG166] |
| binds | ACVWFPNPDWCY [ANG122] |
| binds | VYQDCYNFPNPVHCYRTT [ANG134] |
| binds | ALVECYFYPNPLHCYNTS [ANG165] |
| binds | PCAWYPNPAECY [ANG112] |
| binds | SVAHVHGLLLLPESDALL [ANG153] |
| binds | DCYFYPNPLYCYEDWDYT [ANG187] |
| binds | EVLDCFFYPNPPHCYKAL [ANG199] |
| binds | SCYSYPNPAWCY [ANG118] |
| binds | VVLPSYDCYFYPNPPHCY [ANG161] |
| binds | ACDWFQNPYVCW [ANG111] |
| binds | QDIDCYFYPNPPHCYHVT [ANG180] |
| binds | MCPFWYDHELCV [ANG109] |

| binding | Binder |
| --- | --- |
| binds | KCPLLPDWVPCHEWLNVW [ANG215] |
| binds | HCPDWYNHQLCP [ANG121] |
| binds | PTDVLLECYLYPNPPHCY [ANG138] |
| binds | YPFFLVDCYFFPNPLHCY [ANG151] |
| binds | PCHWFPNPTECY [ANG114] |
| binds | TDTDCYFFPNPPHCYSPG [ANG142] |
| binds | IYDDCYIFPNPHHCYVGF [ANG143] |
| binds | LSLKCPLLPDWISCDEYY [ANG210] |
| binds | ECPFWYDHYMCM [ANG113] |
| binds | RSNLMTDCYYYPNPPHCY [ANG169] |
| binds | LLSVLLECYFYPNPPHCY [ANG137] |
| binds | GEYDCYFYPNPPHCYDRN [ANG154] |
| binds | IWLDCYFYPNPPHCSLNS [ANG188] |
| binds | FVSSAFDCYFYPNPAHCY [ANG164] |
| binds | ECYWYPNPHWCR [ANG119] |
| binds | MPLIFSECYSYPNPPHCY [ANG145] |
| binds | AMSLCPLLPDWASCNDYL [ANG217] |
| binds | LVDYSMDCYFFPNPPHCY [ANG135] |
| binds | HCYWHPSPNWCR [ANG120] |
| binds | FLGAMMDCYFFPNPPHCY [ANG133] |
| binds | QRDPLAACYIYPNPPHCY [ANG176] |
